Test results: article PMC3864799
Results are given in words; binding and its absence hold for the method and conditions named. Some binding calls cover weakened binding; strength is not graded here.

Protein sequences, listed by entry. Tags and fused reporters are not part of them.
UniProt P18067: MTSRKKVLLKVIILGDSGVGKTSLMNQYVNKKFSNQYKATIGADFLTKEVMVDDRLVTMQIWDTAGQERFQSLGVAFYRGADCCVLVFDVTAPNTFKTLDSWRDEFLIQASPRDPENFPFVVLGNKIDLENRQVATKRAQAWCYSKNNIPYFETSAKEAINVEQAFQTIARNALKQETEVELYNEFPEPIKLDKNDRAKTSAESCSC

Target: T1, Rab escort protein 1 (rat REP1) (rat) (UniProt P37727)
T1 sequence: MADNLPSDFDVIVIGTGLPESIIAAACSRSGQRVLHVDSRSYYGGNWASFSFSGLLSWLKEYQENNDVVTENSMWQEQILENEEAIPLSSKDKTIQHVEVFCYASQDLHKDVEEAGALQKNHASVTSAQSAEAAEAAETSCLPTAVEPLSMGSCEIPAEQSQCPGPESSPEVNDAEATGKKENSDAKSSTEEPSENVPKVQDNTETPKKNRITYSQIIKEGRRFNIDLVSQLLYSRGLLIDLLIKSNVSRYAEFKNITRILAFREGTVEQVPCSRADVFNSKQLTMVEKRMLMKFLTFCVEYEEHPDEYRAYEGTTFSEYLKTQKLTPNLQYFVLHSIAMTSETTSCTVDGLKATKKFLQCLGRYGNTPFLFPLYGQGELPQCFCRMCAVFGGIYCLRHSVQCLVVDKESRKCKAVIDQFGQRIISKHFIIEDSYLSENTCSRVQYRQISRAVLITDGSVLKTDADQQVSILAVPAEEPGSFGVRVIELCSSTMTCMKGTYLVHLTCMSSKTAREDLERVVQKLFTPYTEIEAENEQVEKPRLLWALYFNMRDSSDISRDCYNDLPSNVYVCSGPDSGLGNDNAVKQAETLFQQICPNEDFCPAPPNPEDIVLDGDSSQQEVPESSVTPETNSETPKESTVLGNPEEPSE
Experiment: co-purification of a complex reconstituted by in vitro prenylation; Citrine-Rab prenylated in vitro and purified as a complex with REP1 as described previously (ref. 36); prenylation checked by MALDI mass spectrometry; both purified

prenylated Citrine-Rab7a (from UniProt P18067 1-207)
binding: binds
